The source of these data is PMC3021539.

The target of the experiment is HIV-1 Gag (HIV-1). The experiment is described as follows: virus-like-particle incorporation assay; 293T cells co-transfected with 1.0 µg TRIM plasmid and 0.2 µg (0.25 µg in the human TRIM panel) codon-optimized HIV-1 Gag-Pol plasmid pH-GP; filtered supernatant centrifuged at 18,000×g for 90 min through 20% sucrose, washed in PBS; pelleted VLPs immunoblotted with anti-HA and anti-p24.

These are yes or no findings as the source states them, for the method shown. A result given as binding can be weak or reduced; the word gives no strength.

B1: Human TRIM18 (protein, UniProt O15344 1-667)
chain: METLESELTCPICLELFEDPLLLPCAHSLCFNCAHRILVSHCATNESVESITAFQCPTCRHVITLSQRGLDGLKRNVTLQNIIDRFQKASVSGPNSPSETRRERAFDANTMTSAEKVLCQFCDQDPAQDAVKTCVTCEVSYCDECLKATHPNKKPFTGHRLIEPIPDSHIRGLMCLEHEDEKVNMYCVTDDQLICALCKLVGRHRDHQVAALSERYDKLKQNLESNLTNLIKRNTELETLLAKLIQTCQHVEVNASRQEAKLTEECDLLIEIIQQRRQIIGTKIKEGKVMRLRKLAQQIANCKQCIERSASLISQAEHSLKENDHARFLQTAKNITERVSMATASSQVLIPEINLNDTFDTFALDFSREKKLLECLDYLTAPNPPTIREELCTASYDTITVHWTSDDEFSVVSYELQYTIFTGQANVVSLCNSADSWMIVPNIKQNHYTVHGLQSGTKYIFMVKAINQAGSRSSEPGKLKTNSQPFKLDPKSAHRKLKVSHDNLTVERDESSSKKSHTPERFTSQGSYGVAGNVFIDSGRHYWEVVISGSTWYAIGLAYKSAPKHEWIGKNSASWALCRCNNNWVVRHNSKEIPIEPAPHLRRVGILLDYDNGSIAFYDALNSIHLYTFDVAFAQPVCPTFTVWNKCLTIITGLPIPDHLDCTEQLP
In the case of B1, the binding entry was “binds weakly”.
